PubChem BioAssay AID743121, NCATS | 2013

- Purpose: 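Genes whose silencing strengthens cell killing by camptothecin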 (primary screen)
- System: MDA-MB-231 cells, a human breast cancer line
- Reagents: single siRNA against human genes, 20 nM siRNA (0.8 pmol per well)
- Time to read-out: 120 h (drug added 48 h after transfection, read 72 h later)
- Treatment: camptothecin 20 nM (about EC30) for 72 h; vehicle 0.1% DMSO in parallel plates
- Measurement: 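CellTiter-Glo ATP signal, scaled to control siRNA as percent viability; sensitisation given as log2 of untreated divided by camptothecin-treated viability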
- Direction: log2 vehicle/camptothecin viability: higher = stronger sensitisation to camptothecin
- Rule for the call: 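Each gene scored by redundant siRNA activity (RSA) over its individual siRNA ratios; a gene is called active at p < 0.001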
Shown is an unselected part of about 26,000 deposited reagents. 167 of all reagents (0.63%) were called active. 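Calls are per gene from RSA p-values that are not deposited; an individual active-marked siRNA can sensitise only weakly.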 The numbers tell different reagents against one gene apart. Further read-outs or replicates are left out here.

STK32A #1 gave log2 vehicle/camptothecin viability -0.497; inactive.
With knock-down of STK32A #2 the results were log2 vehicle/camptothecin viability -0.263; inactive.
After knock-down of STK32A #3, the record shows log2 vehicle/camptothecin viability 0.131; inactive.
STK32A #4 gave log2 vehicle/camptothecin viability -0.437; inactive.
For RAB1B, the values are log2 vehicle/camptothecin viability -0.226; inactive.
For CAMK4 #1, the entry reads log2 vehicle/camptothecin viability -0.312; inactive.
CAMK4 #2 showed log2 vehicle/camptothecin viability -0.375; inactive.
After knock-down of CAMK4 #3 the results were log2 vehicle/camptothecin viability -0.262; inactive.
CAMK4 #4 gave log2 vehicle/camptothecin viability -0.0258; inactive.
For EDN2 #1 the deposit lists log2 vehicle/camptothecin viability -0.252; inactive.
Against EDN2 #2, the entry reads log2 vehicle/camptothecin viability -0.268; inactive.
With knock-down of EDN2 #3, the record shows log2 vehicle/camptothecin viability -0.0891; inactive.
Against EDN2 #4, the entry reads log2 vehicle/camptothecin viability 0.139; inactive.
TMEM116 #1 scored log2 vehicle/camptothecin viability -0.247; inactive.
With knock-down of TMEM116 #2, the record shows log2 vehicle/camptothecin viability 0.0651; inactive.
After knock-down of TMEM116 #3, the record shows log2 vehicle/camptothecin viability 0.231; inactive.
For TMEM116 #4, the entry reads log2 vehicle/camptothecin viability -0.233; inactive.

3 entries from above, arranged by “log2 vehicle/camptothecin viability”, highest first.
TMEM116 #3: log2 vehicle/camptothecin viability = 0.231; call = inactive
TMEM116 #2: log2 vehicle/camptothecin viability = 0.0651; call = inactive
TMEM116 #4: log2 vehicle/camptothecin viability = -0.233; call = inactive

The list goes on.
Knock-down of SLC25A2 #1 resulted in: log2 vehicle/camptothecin viability -0.315; inactive.
SLC25A2 #2 showed log2 vehicle/camptothecin viability -0.319; inactive.
Against SLC25A2 #3 the deposit lists log2 vehicle/camptothecin viability -0.167; inactive.
SLC25A2 #4 showed log2 vehicle/camptothecin viability -0.218; inactive.
PCSK2 #1 gave log2 vehicle/camptothecin viability 0.0577; inactive.
Against PCSK2 #2, the entry reads log2 vehicle/camptothecin viability -0.298; inactive.
PCSK2 #3 gave log2 vehicle/camptothecin viability -0.229; inactive.
After knock-down of PCSK2 #4 the results were log2 vehicle/camptothecin viability -0.559; inactive.
GTSE1 #1 gave log2 vehicle/camptothecin viability -0.49; inactive.
With knock-down of GTSE1 #2 the results were log2 vehicle/camptothecin viability -0.504; inactive.
GTSE1 #3 scored log2 vehicle/camptothecin viability -0.421; inactive.
Depletion of GPR88 #1 gave: log2 vehicle/camptothecin viability -0.413; inactive.
With knock-down of GPR88 #2, the record shows log2 vehicle/camptothecin viability 0.685; inactive.
GPR88 #3 showed log2 vehicle/camptothecin viability -0.343; inactive.
With knock-down of GPR88 #4, the record shows log2 vehicle/camptothecin viability -0.323; inactive.
With knock-down of FH #1, the record shows log2 vehicle/camptothecin viability -0.277; inactive.
Silencing of FH #2 gave: log2 vehicle/camptothecin viability 0.0656; inactive.
For FH #3, the entry reads log2 vehicle/camptothecin viability -0.136; inactive.
Depletion of HES6 #1 came out at: log2 vehicle/camptothecin viability 0.0203; inactive.
With knock-down of HES6 #2, the record shows log2 vehicle/camptothecin viability 0.00213; inactive.
Knock-down of HES6 #3 resulted in: log2 vehicle/camptothecin viability 0.0357; inactive.
With knock-down of HES6 #4, the record shows log2 vehicle/camptothecin viability -0.475; inactive.
After knock-down of NPAS4 #1, the screen gave log2 vehicle/camptothecin viability -0.586; inactive.
For NPAS4 #2, the values are log2 vehicle/camptothecin viability -0.573; inactive.
For NPAS4 #3 the deposit lists log2 vehicle/camptothecin viability -0.439; inactive.
After knock-down of NPAS4 #4 the results were log2 vehicle/camptothecin viability 1.58; inactive.
Silencing of SERPINC1 #1 gave: log2 vehicle/camptothecin viability -0.21; inactive.
For SERPINC1 #2, the entry reads log2 vehicle/camptothecin viability -0.399; inactive.
SERPINC1 #3 gave log2 vehicle/camptothecin viability -0.102; inactive.
